Results taken from article PMC9179584.
No constants are given. Whether binding was seen depends on the method and setting. Binding seen in cells or lysates may run through a third protein. Some binding calls cover weakened binding; strength is not graded here.

Protein sequences, listed by entry. Tags and fused reporters are not part of them.
UniProt P84022: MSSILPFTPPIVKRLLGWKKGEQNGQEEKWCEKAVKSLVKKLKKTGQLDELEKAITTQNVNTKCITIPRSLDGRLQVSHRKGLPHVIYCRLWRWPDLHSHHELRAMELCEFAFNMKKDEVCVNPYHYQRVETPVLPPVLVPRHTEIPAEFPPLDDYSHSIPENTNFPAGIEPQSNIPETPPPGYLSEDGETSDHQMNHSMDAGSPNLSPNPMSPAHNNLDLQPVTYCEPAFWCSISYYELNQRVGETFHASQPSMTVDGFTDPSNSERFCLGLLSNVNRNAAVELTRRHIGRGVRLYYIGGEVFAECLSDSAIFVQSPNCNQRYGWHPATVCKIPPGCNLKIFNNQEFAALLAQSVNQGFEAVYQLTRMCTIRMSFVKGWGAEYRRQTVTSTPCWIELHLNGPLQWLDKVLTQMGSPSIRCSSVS
UniProt Q15796: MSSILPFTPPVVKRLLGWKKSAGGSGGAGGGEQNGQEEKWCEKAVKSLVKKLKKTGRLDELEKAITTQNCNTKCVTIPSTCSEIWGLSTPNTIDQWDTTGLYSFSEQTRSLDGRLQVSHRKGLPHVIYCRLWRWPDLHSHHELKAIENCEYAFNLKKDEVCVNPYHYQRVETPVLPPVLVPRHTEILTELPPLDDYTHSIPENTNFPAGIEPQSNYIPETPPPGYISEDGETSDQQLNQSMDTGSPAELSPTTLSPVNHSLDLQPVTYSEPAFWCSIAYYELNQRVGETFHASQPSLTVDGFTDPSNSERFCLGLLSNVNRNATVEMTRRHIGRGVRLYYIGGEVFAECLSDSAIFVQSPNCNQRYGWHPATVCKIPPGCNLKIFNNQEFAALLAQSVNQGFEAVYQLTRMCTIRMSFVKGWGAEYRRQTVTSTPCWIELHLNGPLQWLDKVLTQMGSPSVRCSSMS

Columns and labels:
[1] = biological target: SMAD3 (human (endogenous in HT-1080)) (UniProt P84022); experiment: co-IP; endogenous proteins, HT-1080 cells under normoxic (21% O2) or hypoxic (1% O2) conditions; NP-40 lysate, IP of SMAD2 or SMAD3 overnight at 4 °C, protein A-agarose; SARA blotted
[2] = biological target: SMAD2 (human (endogenous in HT-1080)) (UniProt Q15796); experiment: as above
[3] = biological target: SMAD3 wild type, overexpressed from pCMV5b-SMAD3 (UniProt P84022); experiment: co-IP; HT-1080 cells transiently transfected with SMAD2 or SMAD3 constructs; NP-40 lysate, 500 µg protein, IP of SMAD2 or SMAD3 overnight at 4 °C, protein A-agarose; SARA blotted
[4] = biological target: SMAD2 wild type, overexpressed from pCMV5b-SMAD2 (UniProt Q15796); experiment: as above

Measured: binding

B1: SMAD Anchor for Receptor Activation (SARA) (protein, UniProt O95405 1-1425)
chain: MENYFQAEAYNLDKVLDEFEQNEDETVSSTLLDTKWNKILDPPSHRLSFNPTLASVNESAVSNESQPQLKVFSLAHSAPLTTEEEDHCANGQDCNLNPEIATMWIDENAVAEDQLIKRNYSWDDQCSAVEVGEKKCGNLACLPDEKNVLVVAVMHNCDKRTLQNDLQDCNNYNSQSLMDAFSCSLDNENRQTDQFSFSINESTEKDMNSEKQMDPLNRPKTEGRSVNHLCPTSSDSLASVCSPSQLKDDGSIGRDPSMSAITSLTVDSVISSQGTDGCPAVKKQENYIPDEDLTGKISSPRTDLGSPNSFSHMSEGILMKKEPAEESTTEESLRSGLPLLLKPDMPNGSGRNNDCERCSDCLVPNEVRADENEGYEHEETLGTTEFLNMTEHFSESQDMTNWKLTKLNEMNDSQVNEEKEKFLQISQPEDTNGDSGGQCVGLADAGLDLKGTCISESEECDFSTVIDTPAANYLSNGCDSYGMQDPGVSFVPKTLPSKEDSVTEEKEIEESKSECYSNIYEQRGNEATEGSGLLLNSTGDLMKKNYLHNFCSQVPSVLGQSSPKVVASLPSISVPFGGARPKQPSNLKLQIPKPLSDHLQNDFPANSGNNTKNKNDILGKAKLGENSATNVCSPSLGNISNVDTNGEHLESYEAEISTRPCLALAPDSPDNDLRAGQFGISARKPFTTLGEVAPVWVPDSQAPNCMKCEARFTFTKRRHHCRACGKVFCASCCSLKCKLLYMDRKEARVCVICHSVLMNAQAWENMMSASSQSPNPNNPAEYCSTIPPLQQAQASGALSSPPPTVMVPVGVLKHPGAEVAQPREQRRVWFADGILPNGEVADAAKLTMNGTSSAGTLAVSHDPVKPVTTSPLPAETDICLFSGSITQVGSPVGSAMNLIPEDGLPPILISTGVKGDYAVEEKPSQISVMQQLEDGGPDPLVFVLNANLLSMVKIVNYVNRKCWCFTTKGMHAVGQSEIVILLQCLPDEKCLPKDIFNHFVQLYRDALAGNVVSNLGHSFFSQSFLGSKEHGGFLYVTSTYQSLQDLVLPTPPYLFGILIQKWETPWAKVFPIRLMLRLGAEYRLYPCPLFSVRFRKPLFGETGHTIMNLLADFRNYQYTLPVVQGLVVDMEVRKTSIKIPSNRYNEMMKAMNKSNEHVLAGGACFNEKADSHLVCVQNDDGNYQTQAISIHNQPRKVTGASFFVFSGALKSSSGYLAKSSIVEDGVMVQITAENMDSLRQALREMKDFTITCGKADAEEPQEHIHIQWVDDDKNVSKGVVSPIDGKSMETITNVKIFHGSEYKANGKVIRWTEVFFLENDDQHNCLSDPADHSRLTEHVAKAFCLALCPHLKLLKEDGMTKLGLRVTLDSDQVGYQAGSNGQPLPSQYMNDLDSALVPVIHGGACQLSEGPVVMELIFYILENIV
binds: all assays above
